Test results reported in publication PMC7862700.
This is a selection; strong and weak results do not stand in their true shares. At the low end of the ranking, values are background and their order means little.

Sequences of proteins named here, by UniProt entry; tags and fusion partners are left off. A change or cut given only in a name is not applied to a line headed by its entry.
UniProt O43186: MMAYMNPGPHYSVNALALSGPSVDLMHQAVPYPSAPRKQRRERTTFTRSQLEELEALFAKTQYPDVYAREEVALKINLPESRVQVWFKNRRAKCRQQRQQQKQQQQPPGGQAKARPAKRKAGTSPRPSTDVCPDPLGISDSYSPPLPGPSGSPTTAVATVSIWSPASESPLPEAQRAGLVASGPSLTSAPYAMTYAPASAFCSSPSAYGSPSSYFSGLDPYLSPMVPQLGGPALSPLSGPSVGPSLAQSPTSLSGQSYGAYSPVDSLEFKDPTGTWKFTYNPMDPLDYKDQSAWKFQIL

Molecular target: CRX (UniProt O43186)
Assay: DAPPL (digital affinity profiling via proximity ligation, sequencing)
Details: 10 mM Tris-HCl pH 7.5, 50 mM NaCl, 1 mM DTT, 4% glycerol, room temperature, 30 min; GST-TFs on glutathione beads, 16-mer random dsDNA library, 0.1% …; high values mean tight binding; double strand, one strand shown; scale: fold enrichment (6-mer frequency, TF over GST control)

Sequence | binding signal
GACAGA | 0.572
GAGGGG | 0.436
TGAGGG | 0.568
CATGTG | 0.672
TGAGCC | 0.976
AACGTG | 0.331
GCGGAG | 0.216
GGGGCG | 0.446
GGAACG | 0.46
CGTGGC | 0.715
GATCGG | 0.51
GGCGTC | 0.6
GCGCCA | 0.575
AGTCAT | 0.5
AAGGCG | 0.687
GGAGGT | 0.26
CGCCAG | 0.498
GGATCG | 0.629
GAGTGC | 0.526

Sequence | binding signal
GACAAT | 0.839
GCGCTA | 0.942
GAGTTT | 0.555
CGCATC | 0.659
GAGTTG | 0.425
CGGGAC | 0.364
ATCGTG | 0.403
CACGGG | 0.593
ACCGTA | 0.837
GTTAGG | 0.774
GGGACA | 0.441
CGTTGA | 0.665
TACCGT | 0.67
GAGACC | 0.129
GTGAGG | 0.222
AAGAGC | 0.904
TGAGGA | 0.584
GCCGGC | 0.616
ACCGTG | 0.217

Molecular target: T1, ELF5 (UniProt Q9UKW6-2)
T1 sequence: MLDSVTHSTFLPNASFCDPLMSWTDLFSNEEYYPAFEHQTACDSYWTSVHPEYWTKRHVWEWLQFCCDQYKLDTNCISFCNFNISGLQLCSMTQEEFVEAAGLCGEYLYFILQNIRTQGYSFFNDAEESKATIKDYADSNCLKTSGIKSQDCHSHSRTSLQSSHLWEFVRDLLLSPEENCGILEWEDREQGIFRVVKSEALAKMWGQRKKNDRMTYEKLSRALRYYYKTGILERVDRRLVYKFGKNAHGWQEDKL
Assay: as above
Details: 10 mM Tris-HCl pH 7.5, 50 mM NaCl, 1 mM DTT, 4% glycerol, room temperature, 30 min; GST-TFs on glutathione beads, 16-mer random dsDNA library, 0.1% …; high values mean tight binding; double strand, one strand shown; scale: fold enrichment (6-mer frequency, TF over GST control)

Sequence | binding signal
GACAGA | 0.616
GAGGGG | 0.509
TGAGGG | 0.618
CATGTG | 0.737
TGAGCC | 0.775
AACGTG | 0.349
GCGGAG | 0.235
GGGGCG | 0.558
GGAACG | 0.652
CGTGGC | 0.848
GATCGG | 0.435
GGCGTC | 0.834
GCGCCA | 0.734
AGTCAT | 0.63
AAGGCG | 0.679
GGAGGT | 0.337
CGCCAG | 0.654
GGATCG | 0.552
GAGTGC | 0.654

Sequence | binding signal
GACAAT | 0.954
GCGCTA | 0.893
GAGTTT | 0.612
CGCATC | 0.894
GAGTTG | 0.473
CGGGAC | 0.577
ATCGTG | 0.381
CACGGG | 0.815
ACCGTA | 0.846
GTTAGG | 0.805
GGGACA | 0.666
CGTTGA | 0.762
TACCGT | 0.713
GAGACC | 0.18
GTGAGG | 0.255
AAGAGC | 0.874
TGAGGA | 0.88
GCCGGC | 0.744
ACCGTG | 0.246
